In assay [1] the target is His6-OspG (Shigella flexneri 2a strain 301) (UniProt Q99PZ6). The assay is described as follows: pull-down; both purified.
Assay [2] shares this target. The assay is described as follows: SEC; both purified.

Chains of the proteins cited; added tags and fusions are not shown. Residues count along the entry.
UniProt Q99PZ6: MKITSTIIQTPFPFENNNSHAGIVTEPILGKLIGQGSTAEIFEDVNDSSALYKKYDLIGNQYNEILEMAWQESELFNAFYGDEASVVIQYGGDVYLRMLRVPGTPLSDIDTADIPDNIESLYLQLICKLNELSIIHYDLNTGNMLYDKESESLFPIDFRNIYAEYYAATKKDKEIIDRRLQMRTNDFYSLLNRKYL
UniProt P63165, residues 1-97: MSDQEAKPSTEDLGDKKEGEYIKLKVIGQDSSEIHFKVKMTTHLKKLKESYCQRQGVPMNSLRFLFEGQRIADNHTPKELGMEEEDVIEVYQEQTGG

The values that follow come from publication PMC3585378.

Results are given in words; binding and its absence hold for the method and conditions named.

Regarding GST-SUMO1 (from UniProt P63165 1-97), the binding entry in assay [1] is reported as “no binding (tested: 20 µg of prey proteins in 1 mL)”.
In the case of His6-OspG (from UniProt Q99PZ6 1-196), the binding result in assay [2] is “no binding (tested: 200 µg loaded)”.
